Results are given in words; binding and its absence hold for the method and conditions named. Binding seen in cells or lysates may run through a third protein. Here binding means that the protein was enriched with, or labelled near, the bait; the list need not be complete. Sequences can lack the tags named with a protein. Blank lines part the entries; values can stand above or below the binder they belong to.
Molecular target: T1, WASH1-BioID2-HA (UniProt Q8VDD8)
T1 sequence: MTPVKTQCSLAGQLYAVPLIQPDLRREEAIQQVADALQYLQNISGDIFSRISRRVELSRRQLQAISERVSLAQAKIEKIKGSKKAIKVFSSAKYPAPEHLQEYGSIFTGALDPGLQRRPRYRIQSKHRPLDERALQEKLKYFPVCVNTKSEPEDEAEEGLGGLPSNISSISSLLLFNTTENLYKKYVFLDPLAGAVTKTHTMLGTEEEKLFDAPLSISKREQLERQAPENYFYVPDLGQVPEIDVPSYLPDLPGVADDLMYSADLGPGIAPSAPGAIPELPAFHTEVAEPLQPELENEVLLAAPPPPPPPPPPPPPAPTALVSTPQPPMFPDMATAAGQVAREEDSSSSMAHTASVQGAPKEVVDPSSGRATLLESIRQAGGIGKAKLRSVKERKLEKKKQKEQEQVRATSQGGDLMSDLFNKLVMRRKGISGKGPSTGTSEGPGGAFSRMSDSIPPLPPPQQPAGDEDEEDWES
Test: proximity labelling; in vivo BioID (iBioID): AAV hSyn1-WASH1-BioID2-HA in wild-type mouse brain, biotin 24 mg/kg for 7 days, biotinylated proteins purified on NeutrAvidin beads, label-free LC-MS/MS; enrichment over solubleBioID2 control (fold-change >=4, FDR<0.05)

- binding: binds
B1: WASHC4 (SWIP), mouse (protein, UniProt Q3UMB9 1-1173)
chain: MAVDTLSPDWDFDRVDDGSQKIHAEVQLKNYGRFLEEYTSQLRRIEDALDDLIGDVWDFNLDPIALKLLPYEQSSLLELIKTENKVLNKVITVYAALCCEIKKLKYEAETKFYNGLLFYGEGATDSSMVEGDCQIQMGRFVSFLQELSCFVTRCYEVVMNVIHQLAALYISNKIGPKIIETTGVHFQTMYEHLGELLTVLLTLDEIVDNHVTLKDHWTMYKRLLKSVHHNPSKFGIQEEKLKPFEKFLLKLEGQLLDGMIFQACIEQQFDSLNGGISVSKNSTFAEEFAHSIRSIFANVEAKLGEPSEIDQRDKYVGICGLFVLHFQIFRTVDKKFYKSLLDICKKVPAITLTANIIWFPDNFLIHKMPAAAKLLDRKSLQAIKIHRDTFLQQKAQSLNKDVQSYYVFVSSWMMKMESMLSKEQRMDTFAEDLTNRCNVFIQGFLYAYSISTIIKTTMNLYMSMQKPMTKTSVKALCRLIELLKAIEHMFYRRSMVVADSVSHITQHLQHQALSSISVAKKRVISDKKYSEQRLDVLSALVLAENTLNGPSTKQRRLIVSLALSVGTQMKTFKDEELFPLQVVMKKLDLISELRERVQAQCDCCFLYWHRAVFPIYLDDVYENAVDAARLHYMFSALRDCVPAMMHSRHLESHELLLDCYDKEIMDILNEHLLDKLCKEIEKDLRLSVHTHLKLDDRNPFKVGRKDLALFFSLNPIRFFNRFIDIRAYVTHYLDKTFYNLTTVALHDWATYSEMRNLATQRYGLVMTEAHLPSQTLEQGLDVLEIMRNIHIFVSRYLYNLNNQIFIERTSNNKHLNTINIRHIANSIRTHGTGIMNTTVNFTYQFLKKKFYIFSQFMYDEHIKSRLIKDIRFFREIKDQNDHKYPFDRAEKFNRGIRKLGITPEGQSYLDQFRQLISQIGNAMGYIRMIRSGGLHCSSNAIRFVPDLEDIVSFEELVKEEGLAEETLRAARHLDSVLSDHTRNSAEGTEYFKMLVDVFAPEFRRPKNIHLRNFYIIVPPLTLNFVEHSISCKEKLNKKNKLGAAFTDDGFAMGVAYTLKLLDQYQEFDSLHWFQSVREKYIKEIRAVAKQQNVQSTSQDEKLLQTMNLTQKRLEVYLQEFELLYFSLSSARIFFRADKTAAEENQEKKEKEEETKTSNGDGPESTVSADPVVK

- binding: binds
B2: DLGAP4 (protein, UniProt B1AZP2 1-992)
chain: MKGLGDSRPRHLSDSLDPPHEPLFAGPDRNPYLLSPTEAFAREARFPGQNTLPGDGLFPLNNQLPPPSSTFPRIHYNSHFEVPEESPFPSHAQATKINRLPANLLDQFEKQLPIHRDGFSTLQFPRGEAKARGESPGRIRHLVHSVQRLFFTKAPSMEGTAGKVGGNGSKKGGLEDGKGRRAKSKERAKAGEPKRRSRSNISGWWSSDDNLDGEGGAFRSGPASGLMTLGRQQERTQPRYFMHAYNTISGHMLKTTKNTTTELTAPPPPPAPPATCPSLGVGTDTNYVKRGSWSTLTLSHAHEVCQKTSATLDKSLLKSKSCHQGLAYHYLQVPGGGGEWSTTLLSPRDMDSTAEGPIPCRRMRSGSYIKAMGDEDSDESGGGSPKPSPKTAARRQSYLRATQQSLGEQSNPRRSLDRLDSVDMLLPSKCPSWEDDYNPISDSLNDSSCISQVFGQASLIPQLFGHDQQVREADLSDQYEAACESACSEAESTTAEALDLPLPSYFRSRSHSYLRAIQAGCSQEEDSVSLQSLSPPPSTGSLSNSRTLPSSSCLVAYKKTPPPVPPRTTSKPFISVTVQSSTESAQDTYLDSQDHKSEVTSQSGLSNSSDSLDSSTRPPSVTRGGITPGPEAPEPPPKHAALKSEQGTLTSSESHSEAIPKRKLSSIGIQVDCIQPVPKEEPSPATKFQSIGIQVEDDWRSSAPSHSMSSRRDTDSDTQDANDSSCKSSERSLPDCTSHPNSISIDAGPRQAPKIAQIKRNLSYGDNSDPALEASSLPPPDPWLETSSSSPAEPAQPGACRRDGYWFLKLLQAETERLEGWCCQMDKETKENNLSEEVLGKVLSAVGSAQLLMSQKFQQFRGLCEQNLNPDANPRPTAQDLAGFWDLLQLSIEDISMKFDELYHLKANSWQLVETPEKRKEEKKPPPPVPKKPAKSKAAVSRDKASDAGDKQRQEARKRLLAAKRAASVRQNSATESADSIEIYVPEAQTRL
